From article PMC6824560, “Insight into the relationship between aryl-hydrocarbon receptor and β-catenin in human colon cancer cells” (PLoS ONE, 2019)

Chains of the proteins cited; added tags and fusions are not shown. Lines headed by an entry give the natural chain unless they say otherwise; changes in a name come on top.
UniProt P30561: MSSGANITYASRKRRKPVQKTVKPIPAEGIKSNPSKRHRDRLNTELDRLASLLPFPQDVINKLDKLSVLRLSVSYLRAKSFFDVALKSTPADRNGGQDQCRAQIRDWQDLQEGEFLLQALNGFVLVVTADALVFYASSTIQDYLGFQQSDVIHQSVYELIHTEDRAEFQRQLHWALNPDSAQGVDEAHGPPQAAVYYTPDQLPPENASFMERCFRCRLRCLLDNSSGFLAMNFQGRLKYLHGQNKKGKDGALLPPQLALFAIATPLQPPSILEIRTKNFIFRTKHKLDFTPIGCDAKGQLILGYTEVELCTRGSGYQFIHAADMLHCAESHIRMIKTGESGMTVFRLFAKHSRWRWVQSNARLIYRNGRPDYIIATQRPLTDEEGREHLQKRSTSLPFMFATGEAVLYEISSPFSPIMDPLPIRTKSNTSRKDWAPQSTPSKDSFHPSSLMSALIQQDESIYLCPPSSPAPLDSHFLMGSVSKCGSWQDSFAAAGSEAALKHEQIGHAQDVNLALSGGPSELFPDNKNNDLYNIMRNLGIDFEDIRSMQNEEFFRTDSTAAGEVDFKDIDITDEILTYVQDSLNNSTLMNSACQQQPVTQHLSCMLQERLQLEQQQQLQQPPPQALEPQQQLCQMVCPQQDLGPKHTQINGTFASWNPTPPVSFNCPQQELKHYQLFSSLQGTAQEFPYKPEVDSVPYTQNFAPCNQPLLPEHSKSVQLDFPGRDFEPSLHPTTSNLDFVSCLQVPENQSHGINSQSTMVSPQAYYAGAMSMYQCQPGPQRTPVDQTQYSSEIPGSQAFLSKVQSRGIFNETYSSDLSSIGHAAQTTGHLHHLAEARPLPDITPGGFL
UniProt P35222: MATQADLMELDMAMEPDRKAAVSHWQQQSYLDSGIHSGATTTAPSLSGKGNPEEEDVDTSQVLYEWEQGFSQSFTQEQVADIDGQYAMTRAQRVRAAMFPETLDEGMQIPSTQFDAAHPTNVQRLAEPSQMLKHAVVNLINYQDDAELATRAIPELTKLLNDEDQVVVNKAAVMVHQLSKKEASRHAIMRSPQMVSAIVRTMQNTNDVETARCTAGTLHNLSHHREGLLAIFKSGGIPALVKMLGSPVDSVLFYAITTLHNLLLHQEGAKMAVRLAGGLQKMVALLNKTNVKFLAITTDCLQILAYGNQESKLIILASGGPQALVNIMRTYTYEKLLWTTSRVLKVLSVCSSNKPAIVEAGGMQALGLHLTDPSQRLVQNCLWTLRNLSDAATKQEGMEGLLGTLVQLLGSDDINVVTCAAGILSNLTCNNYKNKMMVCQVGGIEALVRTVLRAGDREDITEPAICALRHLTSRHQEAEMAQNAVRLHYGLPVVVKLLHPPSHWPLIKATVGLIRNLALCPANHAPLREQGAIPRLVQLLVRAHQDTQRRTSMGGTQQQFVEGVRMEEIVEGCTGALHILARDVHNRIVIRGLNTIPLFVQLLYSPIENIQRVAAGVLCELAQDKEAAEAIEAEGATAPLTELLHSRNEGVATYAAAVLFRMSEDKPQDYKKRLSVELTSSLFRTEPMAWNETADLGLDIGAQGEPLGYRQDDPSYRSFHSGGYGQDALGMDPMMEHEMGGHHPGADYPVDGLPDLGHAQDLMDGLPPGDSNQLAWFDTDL

Target: mouse AhR (pCI-mAhR) (mouse) (UniProt P30561)
Assay: co-IP; nuclear extracts of HCT116 cells transfected with pCI-mAhR and pCI-βcat, exposed to 1 μM 3MC or DMSO with or without 100 μM MG-132 for 2 h; precipitated with anti-AhR antibody and protein G Sepharose; immunoblot for β-catenin, CUL4B and Arnt

- binding: binds
Substance: wild-type β-catenin (pCI-βcat) (from UniProt P35222 1-781)

These are yes or no findings as the source states them, for the method shown. In cells and extracts the contact can be indirect. Binding can be weak; no strength is given.
